Results from patent publication US4029881A, “Antibiotic 9-acyl-3"-thiomethoxymethyl-SF-837 composition and process for preparing the same” (Meiji Seika Co., Ltd., priority 1972, dated 1977).

Experiment: panel tests on the bitter taste
Conditions: 10% by weight dry syrup in sucrose, 100-200 mg each; 10 persons; 0 undetectable, 1 negligible, 2 bitter (acceptable), 3 bitter (unacceptable), 4 bitter (objectionable)

CCC(=O)OC1CC(=O)OC(C)CC=CC=CC(O)C(C)CC(CC=O)C(OC2OC(C)C(OC3CC(C)(O)C(OC(=O)CC)C(C)O3)C(N(C)C)C2O)C1OC (stereo not shown) [SF-837]
Mean Scores (bitter taste): 3.6 point
